B1: cAB1459-10.0 (antibody, V domains shown)
VH: QVQLVQSGAEVKKPGASVKVSCKASGYTFTTYVMHWVRQAPGKGLEWMGYINPYNDGTNYNEKFKGRVTMTEDTSTDTAYMELSSLRSEDTAVYYCAEFITKTVGGSNWYLDVWGQGTTVTVSS
VL: DIQLTQSPSFLSASVGDRVTITCSASSSISYIHWFQQKPGKAPKRWIYDTSKLPSGVPSRFSGSGSGTEYTLTISSLQPEDFATYYCHQRSSYTWTFGGGTKLEIK
B2: cAB1467-10.0 (antibody, V domains shown)
VH: QVQLVQSGAEVKKPGASVKVSCKASGYTFTTYVMHWVRQAPGKGLEWMGYINPYNDGTNYNEKFKGRVTLTSDKSTSTAYMELSSLRSEDTAVYYCAEFITKTVGGSNWYLDVWGQGTTVTVSS
VL: DIQLTQSPSFLSASVGDRVTITCSASSSISYIHWFQQKPGKAPKRWIYDTSKLPSGVPSRFSGSGSGTEYTLTISSLQPEDFATYYCHQRSSYTWTFGGGTKLEIK
B3: cAB1468-10.0 (antibody, V domains shown)
VH: QVQLVQSGAEVKKPGASVKVSCKASGYTFTTYVMHWVRQAPGKGLEWMGYINPYNDGTNYNEKFKGRVTLTSDKSTSTAYMELSSLRSEDTAVYYCAEFITKTVGGSNWYLDVWGQGTTVTVSS
VL: EIVLTQSPATLSLSPGERATLSCSASSSISYIHWYQQKPGQAPRRLIYDTSKLPSGIPARFSGSGSGTDFTLTISSLEPEDFAVYYCHQRSSYTWTFGGGTKLEIK

Protein sequences, listed by entry. Tags and fused reporters are not part of them. Lines headed by an entry give the natural chain unless they say otherwise; changes in a name come on top.
UniProt Q13488: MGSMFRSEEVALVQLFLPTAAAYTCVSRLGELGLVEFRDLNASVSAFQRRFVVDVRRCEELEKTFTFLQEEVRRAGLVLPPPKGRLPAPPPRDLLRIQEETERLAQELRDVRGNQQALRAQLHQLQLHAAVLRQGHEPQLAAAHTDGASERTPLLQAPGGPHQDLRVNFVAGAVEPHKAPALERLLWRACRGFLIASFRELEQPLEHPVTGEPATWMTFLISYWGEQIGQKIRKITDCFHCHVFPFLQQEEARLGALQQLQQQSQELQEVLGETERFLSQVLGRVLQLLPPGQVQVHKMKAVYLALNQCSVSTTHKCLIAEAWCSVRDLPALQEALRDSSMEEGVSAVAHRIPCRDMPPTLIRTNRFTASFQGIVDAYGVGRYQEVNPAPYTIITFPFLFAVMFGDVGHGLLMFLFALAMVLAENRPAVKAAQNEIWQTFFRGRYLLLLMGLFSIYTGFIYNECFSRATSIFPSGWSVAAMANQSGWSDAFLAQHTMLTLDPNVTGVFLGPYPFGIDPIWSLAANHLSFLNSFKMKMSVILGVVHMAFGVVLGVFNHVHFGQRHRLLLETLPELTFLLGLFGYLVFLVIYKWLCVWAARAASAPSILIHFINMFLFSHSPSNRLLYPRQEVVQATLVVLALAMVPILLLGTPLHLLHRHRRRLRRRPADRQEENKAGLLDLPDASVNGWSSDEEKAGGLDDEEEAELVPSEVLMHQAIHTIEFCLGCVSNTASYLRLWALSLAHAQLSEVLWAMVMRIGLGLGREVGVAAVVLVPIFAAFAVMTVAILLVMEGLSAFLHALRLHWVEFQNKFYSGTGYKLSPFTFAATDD

These are yes or no findings as the source states them, for the method shown. Binding can be weak; no strength is given.

The assay has as its target largest TIRC7 extracellular domain (T-cell immune response cDNA 7) (human) (UniProt Q13488). The assay is described as follows: SPR, Biacore T200. For orientation: SPR reads the build-up and loss of mass on a sensor chip optically.
Consider B1, for which the binding entry is on record as “binds”.

B2: the binding entry is “binds”.

For B3, the binding entry is “binds”.

For the origin of these results see patent US20260062479A1.
